Values quoted from earlier work, collected in paper PMC7796259, “Evaluation of Ionic Liquids and Ionic Liquids Active Pharmaceutical Ingredients Inhibition in Elastase Enzyme Activity” (Molecules, 2021).

Biological target: carboxylesterase
Conditions: read-out: EC50 for carboxylesterase; compared with elastase values; cited from earlier work

CC(C)(C)CC(C)(C)c1ccc(OCCOCC[N+](C)(C)Cc2ccccc2)cc1 [Benzethonium chloride]
EC50: 123.7 ± 0.009 µM
